Measured values: PubChem BioAssay AID493014 (National Center for Advancing Translational Sciences (NCATS), 2011)
Out of some 340,000 compounds screened, about 170 (0.05%) were called active. Inconclusive means that the source gave no clear call. Such entries were picked first, then a sample of the others. The call rests on the fitted dose curve; in most records, active means well fitted inhibition curve with a large enough effect in the signal ratio, with a control signal flat (not every such curve was filed as active); inconclusive means small, poorly fitted or top-dose-only effect, or effect the other way, or a change in a side signal; inactive means flat fitted curve, though single readings scatter; the % refers to the signal ratio. A potency beside an inconclusive call is a rough fit, not a confirmed value.
Potency means the concentration at half of the fitted maximal effect.

Test: qHTS Assay to Find Inhibitors of Chronic Active B-Cell Receptor Signaling;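 on activity change, negative = inhibition: plate controls were basal doxycycline-induced cells for no effect and cells given 10 µM MG132 for full effect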
Conditions: ABC-DLBCL IkBa-CBG/CBR reporter, luminescence ratio (green luciferase fused to IkBa over red control in TMD8 lymphoma cells), 4 h; activity change, negative = inhibition: at 46.1 µM (top of the series)
Outline: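 TMD8 ABC-DLBCL cells carrying doxycycline-inducible green luciferase fused to IkappaBalpha plus unfused red luciferase were exposed to compounds (up to 46 uM) for 4 hrs at 37C. Activity came from the overlap-corrected green/red luminescence ratio.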
In the case of Cc1cc(/C=C(\C#N)C(=O)Nc2ccc(F)cc2)c(C)n1-c1ccc(N2CCOCC2)c([N+](=O)[O-])c1, the activity change, negative = inhibition is reported as inconclusive: -13.3%. With O=C(NCc1ccco1)C1CCC(N2C(=O)C3C4CCC(C4)C3C2=O)CC1 (configuration not stated) the activity change, negative = inhibition was inconclusive: 5.71%. For COc1ccc2nc(NC(=O)c3ccco3)sc2c1, the Potency was inconclusive: 15.8 µM [falling, partial curve]. In the case of CCN(CC)S(=O)(=O)c1ccc(NC(=O)CSc2cccc[n+]2[O-])cc1, the activity change, negative = inhibition is reported as inconclusive: 17.9%. For Cc1cc(NC(=O)CSc2nc(C(C)C)nc3c2c(=O)n(C)c(=O)n3C)no1, the “activity change, negative = inhibition” value was inactive: 0.409%. In the case of COc1ccc(C)cc1S(=O)(=O)Nc1ccccc1, the activity change, negative = inhibition is reported as inconclusive: -10.2%. With O=C(Nc1ccc(Cl)cc1F)c1cc(S(=O)(=O)NC2CCCCCC2)ccc1F the activity change, negative = inhibition was inconclusive: 20.6%. For O=C1C2=C(C(=O)c3ccccc31)C1O[C@](CCCCN3C(=O)c4ccccc4C3=O)(Cc3ccccc31)O2, the Potency was inconclusive: 0.891 µM [rising, partial curve]. With COc1cccc(NC(=O)CSc2ncnc3c2cnn3Cc2ccccc2)c1 the activity change, negative = inhibition was inconclusive: 5.8%. For FC(F)c1nc2ccccc2[nH]1, the activity change, negative = inhibition was inconclusive: 3.26%. In the case of COC(=O)Nc1ccc(S(=O)(=O)N2CCCC(C(=O)N3CC(C)OC(C)C3)C2)cc1 (configuration not stated), the activity change, negative = inhibition is reported as inconclusive: 7.6%. In the case of CCc1cc(=O)oc2c(C)c(OCC(=O)NCCN3CCOCC3)ccc12, the activity change, negative = inhibition is reported as inconclusive: 0.363%. With COc1ccc(C(=O)c2sc3nc(-c4ccccc4)ccc3c2N)cc1 the “activity change, negative = inhibition” value was inactive: 5.44%. For O=C(CSc1nc(=O)n(Cc2ccccn2)c2c1CCC2)Nc1cccc(Cl)c1, the “activity change, negative = inhibition” value was inactive: 13.5%. In the case of COc1ccc(C(=O)N2CCCC(c3ccccc3)=N2)cc1, the Potency is reported as inconclusive: 20 µM [falling, partial curve]. With COc1cc(C=C2C(=O)OC(C)(C)OC2=O)ccc1OCC(=O)Nc1ccccc1 the Potency was inconclusive: 11.2 µM [falling, single point]. For COc1ccc(C(=O)NCc2nnc(SCC(=O)NO)n2Cc2ccccc2)cc1, the Potency was inconclusive: 35.5 µM [falling, single point]. In the case of COc1cc2c(cc1OC)C(c1cccc([N+](=O)[O-])c1)NC(=O)C2 (configuration not stated), the activity change, negative = inhibition is reported as inconclusive: -2.71%. For COc1ccc(/C=N/NC(=O)c2cccc(NC(=O)c3ccccc3Cl)c2)cc1OC, the Potency was inconclusive: 3.55 µM [falling, full curve, poor fit]. With COc1ccc2oc(C(=O)OCC(=O)NC(=O)NC(C)C)c(C)c2c1 the Potency was inconclusive: 29.1 µM [falling, single point]. For C#CCOCCOCCOCCNc1nc(N2CCN(C(=O)CCCCCCCCCCNC(=O)[C@H](CO)n3cc(CCCCCN)nn3)CC2)nc(N2CCN(C(=O)CCCCCCCCCCNC(=O)[C@H](CCCN=C(N)N)n3cc(C[C@@H](C)CC)nn3)CC2)n1, the activity change, negative = inhibition was inconclusive: 0.597%. In the case of COc1ccc(CC(=O)NNC(=O)c2ccc(Br)o2)cc1, the “activity change, negative = inhibition” value is reported as inactive: 2.95%. In the case of Cc1ccc(NC(=O)CN2C(=O)c3ccccc3Sc3ccc(C(=O)N4CCOCC4)cc32)cc1C, the Potency is reported as inconclusive: 10 µM [falling, partial curve, poor fit]. For COc1ccccc1OCCNCC(O)COc1cccc2[nH]c3ccccc3c12 (configuration not stated), the Potency was inconclusive: 35.5 µM [rising, single point] and the activity change, negative = inhibition was inconclusive: 24.3%. For CN1CCC(NCCC(c2ccc(F)cc2)c2ccc(Cl)cc2)CC1 (configuration not stated), the Potency was inconclusive: 17.8 µM [falling, single point]. For COc1cc(/C=N/n2cnnc2)ccc1OCc1ccc(C)cc1, the activity change, negative = inhibition was inconclusive: 15.6%. In the case of COc1ccccc1-n1ccnc(SCC(=O)NC2CCCCC2)c1=O, the activity change, negative = inhibition is reported as inconclusive: -29.7%. In the case of O=C(NC1CCCC1)C(c1ccncc1)N(C(=O)Cn1nnc(-c2ccccc2F)n1)c1cccc(F)c1 (configuration not stated), the “activity change, negative = inhibition” value is reported as inactive: -10%. With CCCc1cc(=O)oc2cc(C)c3c(C)coc3c12 the activity change, negative = inhibition was inconclusive: 0.273%. In the case of COC(=O)c1ccc(COC(=O)c2ccc(C)c(S(=O)(=O)N3CCCCC3)c2)cc1, the Potency is reported as inconclusive: 23.1 µM [falling, single point]. With CC1(C)CC(CC(=O)Nc2nccs2)(c2ccccc2)CCO1 (configuration not stated) the activity change, negative = inhibition was inconclusive: 21.8%. For CCC(C(=O)Nc1nccs1)(C(F)(F)F)C(F)(F)F, the “activity change, negative = inhibition” value was inactive: 1.23%. For C=CCSc1nnc(-c2cc3c(-c4ccccc4)nn(C)c3s2)n1C, the activity change, negative = inhibition was inconclusive: -7.11%. In the case of C=CCn1c(SCc2cc(=O)n3ccsc3n2)nc2cc(Cl)ccc2c1=O, the activity change, negative = inhibition is reported as inconclusive: 1.41%. For Cc1ccc(-c2csc(NC(=O)CSc3nc4ccccc4o3)n2)cc1, the activity change, negative = inhibition was inconclusive: 3.33%. With CCCCN(C(=O)c1ccc([N+](=O)[O-])s1)c1c(N)n(CC(C)C)c(=O)[nH]c1=O the activity change, negative = inhibition was inconclusive: 14.1%. In the case of CCSC1=N/C(=C\c2ccccc2)C(=O)N1c1ccc(OC)cc1, the “activity change, negative = inhibition” value is reported as inactive: -0.366%. With CN(CCCC[C@H](CNCc1ccc(-c2ccccc2)cc1)N1C[C@H](c2ccccc2)N(CCc2ccc(Cl)c(Cl)c2)C(=O)C1=O)Cc1ccc(-c2ccccc2)cc1 the Potency was inconclusive: 35.5 µM [falling, single point]. With CCOC(=O)c1oc2ccccc2c1COC(=O)CNC(=O)c1ccc(C)cc1 the Potency was inconclusive: 29.1 µM [falling, partial curve, poor fit]. In the case of Cc1ccc(NC(=O)/C(=C/c2ccco2)c2ccccc2)c(C)c1, the activity change, negative = inhibition is reported as inconclusive: 14%. With Cc1ccc(NS(=O)(=O)c2ccc3c(c2)NC(=O)CCS3)c(C)c1 the “activity change, negative = inhibition” value was inactive: 2.48%. With CC(C)c1nc(CN(C)C(=O)N[C@H](C(=O)N[C@@H](Cc2ccccc2)C[C@H](O)[C@H](Cc2ccccc2)NC(=O)OCc2cncs2)C(C)C)cs1 the activity change, negative = inhibition was inconclusive: -21.1%. For Cc1onc(-c2ccccc2)c1NC(=O)Nc1c(-c2ccccc2)noc1C, the “activity change, negative = inhibition” value was inactive: 4.33%. With Cc1ccc(C(=O)N/C(=C\c2ccco2)C(=O)N2CCSCC2)cc1C the activity change, negative = inhibition was inconclusive: 0.112%. With Cc1ccc(-n2ncc3c2CC(C)(C)CC3NC(=O)CCc2ccncc2)cc1 (configuration not stated) the “activity change, negative = inhibition” value was inactive: -0.228%. For COC(=O)c1c2c(nc3ccccc13)CCC2, the “activity change, negative = inhibition” value was inactive: 5.21%. In the case of COc1ccc(C(=O)OCc2c(-c3cccc(OC)c3)ncc3ccccc23)cc1, the Potency is reported as inconclusive: 3.66 µM [falling, partial curve, poor fit]. For COc1cc2ncc(S(=O)(=O)c3ccccc3)c(N3CCC4(CC3)OCCO4)c2cc1OC, the Potency was inconclusive: 15.8 µM [falling, partial curve]. In the case of CC1=C2C(=O)OC(c3ccoc3)C2(C)CCC1 (configuration not stated), the Potency is reported as inconclusive: 13 µM [rising, single point]. With CCOC(=O)c1ccc(NC(=S)Nc2ccc(Cl)cn2)cc1 the Potency was inconclusive: 0.794 µM [falling, full curve, poor fit]. With CC(=O)N1CCc2cc(C(=O)CN3CCN(c4ccccn4)CC3)ccc21 the activity change, negative = inhibition was inconclusive: 1.54%. For C/C(CC(=O)Nc1ccc(Cl)cc1Cl)=N\NC(=O)c1ccco1, the Potency was inconclusive: 23.1 µM [falling, single point]. In the case of Cc1ccc2c(cnn2C(=O)CCCC(=O)NCc2ccc(F)cc2)c1, the activity change, negative = inhibition is reported as inconclusive: 12.1%. For Cc1nc(NC(=O)c2ccco2)sc1C(=O)O, the activity change, negative = inhibition was inconclusive: 244%. For CCCc1noc2c1C(c1cc(Br)ccc1F)C(C#N)=C(N)N2 (configuration not stated), the activity change, negative = inhibition was inconclusive: -8.4%. With Cc1cccn2c(=O)c3cc(C(=O)NCCCOC(C)C)sc3nc12 the “activity change, negative = inhibition” value was inactive: -4.33%. With COCCCn1cc(C(=O)c2cc(Br)ccc2O)cc(C#N)c1=O the “activity change, negative = inhibition” value was inactive: 1.24%. In the case of Cc1ccc(C(=O)c2coc3ccc(O)c(Cl)c23)cc1, the Potency is reported as inconclusive: 23.1 µM [falling, single point]. With Cn1c(SCC(=O)c2ccccc2)nnc1-c1ccco1 the Potency was inconclusive: 18.4 µM [falling, partial curve]. In the case of Cc1nn(Cc2ccc(Cl)cc2)c(C)c1NC(=O)CSc1nc2c(c(C(F)(F)F)n1)CCc1ccccc1-2, the “activity change, negative = inhibition” value is reported as inactive: -0.388%. With CCOC(=O)c1[nH]c(C)c(C(=O)N(CC)CC)c1C the Potency was inconclusive: 1.46 µM [rising, partial curve]. With CN(C)c1ccc(-c2nc3cnccn3c2Nc2ccc3c(c2)OCCO3)cc1 the “activity change, negative = inhibition” value was inactive: -17.1%. With CC(C)c1ccc(NC(=S)Nc2ccc3[nH]c(=O)[nH]c3c2)cc1 the “activity change, negative = inhibition” value was inactive: 4.99%. In the case of COc1ccc2nc(C)cc(N/N=C/c3ccc(F)cc3)c2c1, the Potency is reported as inconclusive: 31.6 µM [rising, single point]. In the case of COc1cc(NC(=O)Cc2cccs2)ccc1-n1cnnn1, the activity change, negative = inhibition is reported as inconclusive: 1.46%. In the case of COc1cc(NC(=S)NC(=O)c2cc(C)cc(C)c2)ccc1NC(=O)c1cccs1, the activity change, negative = inhibition is reported as inconclusive: 11.3%. In the case of O=C(CC(O)(C(F)(F)F)C(F)(F)F)Nc1ccc(Cl)c(Cl)c1, the Potency is reported as inconclusive: 29.1 µM [rising, single point]. In the case of CC(=O)c1c(C)[nH]c(C(=O)COC(=O)CN(C)S(=O)(=O)c2ccc(Cl)cc2)c1C, the Potency is reported as inconclusive: 23.1 µM [falling, single point]. In the case of O=C(NC1CCC(O)CC1)c1cc(-c2ccc(Cl)cc2)nc2ccccc12 (configuration not stated), the “activity change, negative = inhibition” value is reported as inactive: 0.207%. With CC/C(=N/NC(=O)c1ccccc1)c1ccc(OCCN2CCOCC2)cc1 the Potency was inconclusive: 14.6 µM [falling, partial curve]. For Cc1ccc(NC2CCCN(C(=O)c3ccc4[nH]ccc4c3)C2)cc1C (configuration not stated), the activity change, negative = inhibition was inconclusive: -13.1%. In the case of Clc1ncnc2scc(-c3ccccc3)c12, the “activity change, negative = inhibition” value is reported as inactive: -6.37%. For Cc1cc(C)c2nc(SCCc3ccccc3)nc(C)c2c1, the activity change, negative = inhibition was inconclusive: 19.6%. For O=C(Nc1nccs1)c1ccc(Cl)s1, the activity change, negative = inhibition was inconclusive: -19.9%. With CCN(CC)S(=O)(=O)c1ccc2c(c1)CC(C(=O)N1CCCC1)N2C(C)=O (configuration not stated) the “activity change, negative = inhibition” value was inactive: 4.77%. With CCOC(=O)Cc1csc(NC(=O)Nc2ccc(OC(F)(F)F)cc2)n1 the Potency was inconclusive: 12.6 µM [falling, partial curve, poor fit].
